{"sequences": {"note": "Protein sequences, listed by entry. Tags and fused reporters are not part of them. Lines headed by an entry give the natural chain unless they say otherwise; changes in a name come on top.", "UniProt P51450": "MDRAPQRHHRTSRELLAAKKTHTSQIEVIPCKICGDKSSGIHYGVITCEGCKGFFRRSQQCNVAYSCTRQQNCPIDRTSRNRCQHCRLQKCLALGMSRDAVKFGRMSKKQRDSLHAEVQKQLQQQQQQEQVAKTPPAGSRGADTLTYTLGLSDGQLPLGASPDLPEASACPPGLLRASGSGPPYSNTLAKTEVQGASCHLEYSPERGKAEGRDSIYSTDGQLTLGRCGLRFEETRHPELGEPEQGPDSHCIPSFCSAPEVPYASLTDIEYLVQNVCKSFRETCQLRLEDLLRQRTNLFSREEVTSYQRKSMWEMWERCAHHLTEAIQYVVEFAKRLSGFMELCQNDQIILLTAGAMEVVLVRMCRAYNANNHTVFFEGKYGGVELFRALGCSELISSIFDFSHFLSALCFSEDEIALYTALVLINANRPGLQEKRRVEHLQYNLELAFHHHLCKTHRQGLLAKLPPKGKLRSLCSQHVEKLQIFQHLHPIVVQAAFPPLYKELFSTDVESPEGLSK"}, "source": "PubChem BioAssay AID2551", "about": "(National Center for Advancing Translational Sciences (NCATS), 2010)", "note": "Hit rate of the full screen: of about 310,000 compounds, about 17,000 (5.5%) were called active. This list was built around the results that the source calls inconclusive (neither active nor inactive); the mix of calls is not that of the screen. The call rests on the fitted dose curve; in most records, active means well fitted inhibition curve with a large enough effect; inconclusive means small, poorly fitted or top-dose-only effect, or effect the other way; inactive means no such curve, though single readings can be large or run the other way. Potencies of inconclusive entries are doubtful fits and often do not repeat.", "data": [{"target": "Nuclear receptor ROR-gamma (Mus musculus) (UniProt P51450)", "test": "qHTS for inhibitors of ROR gamma transcriptional activity; further: nearly all actives have a fitted effect of over 60% in size; further: potency means the concentration at half of the fitted maximal effect; on activity change, negative = inhibition: on the % scale 0 is the no-effect control and ±100 the full control effect", "conditions": "Drosophila S2 Gal4-RORgamma UAS-luciferase reporter, 20 h; activity change, negative = inhibition: at 53.6 µM (top of the series)", "procedure,_shortened": "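ROR gamma transcriptional activity was tracked as Gal4-UAS luciferase output in stably transfected Drosophila Schneider cells, with compound added 1 hr before 700 uM copper sulfate induction and a 20 hr ambient-temperature incubation.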", "values": [{"compound": "CC(NCc1cc(Br)ccc1OCC(=O)NCc1ccccc1)c1ccccc1", "note": "(configuration not stated)", "Potency": "inconclusive: 12.6 µM [inhibitor, single point]"}, {"compound": "CCCOc1ccccc1-n1sc2c(c1=S)-c1cc(OC)cc3c1N(C(=O)C3=O)C2(C)C", "Potency": "inconclusive: 6.31 µM [inhibitor, full curve, poor fit]"}, {"compound": "Cc1nc2c3ccccc3nc(SCC(=O)c3ccc(Cl)cc3)n2n1", "Potency": "inconclusive: 35.5 µM [inhibitor, single point]"}, {"compound": "CC1(C)CC2CC(C)(CN2C(=S)NC(=O)c2ccccc2Cl)C1", "note": "(configuration not stated)", "Potency": "active: 1.26 µM"}, {"compound": "Cc1ccc(-c2nc(CS(=O)CC(=O)NCc3ccccc3)c(C)o2)cc1", "note": "(configuration not stated)", "Potency": "inconclusive: 5.01 µM [inhibitor, partial curve, poor fit]"}, {"compound": "O=C(NNc1nc2ccccc2s1)Nc1ccccc1", "Potency": "inconclusive: 22.4 µM [inhibitor, single point]"}, {"compound": "COC(OC)c1ccc(C#N)c(SCc2ccc(C)cc2)n1", "Potency": "inconclusive: 15.8 µM [activator, partial curve]"}, {"compound": "CCN1CCN(C2CC(=O)NC2=O)CC1", "note": "(configuration not stated)", "activity change, negative = inhibition": "inactive: 6.9%"}, {"compound": "Nc1n[nH]c2c1C1(CCCC1)Cc1ccccc1-2", "Potency": "inconclusive: 0.355 µM [inhibitor, partial curve]"}, {"compound": "CCN(CC)CCNC(=O)CCn1c(=S)[nH]c2cc3c(cc2c1=O)OCO3", "Potency": "inconclusive: 0.398 µM [inhibitor, full curve, poor fit]"}, {"compound": "COc1cccc2cc(C(=O)NC(C)c3ccccc3)c(=O)oc12", "note": "(configuration not stated)", "activity change, negative = inhibition": "inactive: 9.33%"}, {"compound": "Nc1nnc(COc2ccccc2)s1", "activity change, negative = inhibition": "inactive: 14.6%"}, {"compound": "COc1ccc(NC(=O)/C(Cl)=C(/Cl)S(=O)(=O)Cc2ccc(C)cc2)cn1", "Potency": "active: 4.47 µM"}, {"compound": "Brc1ccccc1-n1nnc(-c2ccnc3ccccc23)n1", "Potency": "inconclusive: 14.1 µM [inhibitor, single point]"}, {"compound": "COc1ccc(C(=O)C2CCCN(C(=O)c3n[nH]c4c3CCCC4)C2)cc1OC", "note": "(configuration not stated)", "Potency": "inconclusive: 22.4 µM [activator, single point]"}, {"compound": "CC(C)[C@@H](OCc1ccccc1)[C@H](C)/C=N\\O[C@@H](C)c1cn([C@@H]2COC[C@@H]2O)nn1", "activity change, negative = inhibition": "inactive: 13.9% [at 10 µM]"}, {"compound": "COc1ccccc1NC1=CC(=O)CC(c2ccccc2)C1", "note": "(configuration not stated)", "Potency": "inconclusive: 7.94 µM [activator, partial curve]"}, {"compound": "O=S(=O)(NC1CC1)c1ccc(S(=O)(=O)N2CCCC3(CCCCC3)C2)cc1", "Potency": "inconclusive: 22.4 µM [inhibitor, single point]"}, {"compound": "N=c1c(S(=O)(=O)c2ccc(Br)cc2)cc2c(=O)n3ccccc3nc2n1Cc1ccco1", "activity change, negative = inhibition": "inactive: -3.23%"}, {"compound": "CCSc1nc(-c2cccs2)nc2ccccc12", "activity change, negative = inhibition": "inactive: 11.8%"}, {"compound": "COc1cccc(Oc2coc3c(CN4CCOCC4)c(O)ccc3c2=O)c1", "Potency": "inconclusive: 14.1 µM [activator, single point]"}, {"compound": "Cc1ccc(-c2cc(C(=O)N/N=C/c3c(C)nn(C)c3C)c3ccccc3n2)cc1C", "Potency": "inconclusive: 35.5 µM [inhibitor, single point]"}, {"compound": "C/C(=N\\NC(=S)Nc1ccccc1C)c1ccc(O)cc1", "Potency": "active: 10 µM"}, {"compound": "Cc1ccc(Cn2ccc(NC(=O)c3cc(C)on3)n2)cc1", "Potency": "inconclusive: 17.8 µM [activator, partial curve, poor fit]"}, {"compound": "Cn1nc(CC(=O)Nc2ccc(N3CCN(C(=O)OC(C)(C)C)CC3)cc2)c2ccccc2c1=O", "Potency": "inconclusive: 1.78 µM [activator, partial curve, poor fit]"}, {"compound": "COCC1C2CC[C@H]3C(OCc4ccc(OC)cc4)OC[C@]4(C)[C@H]3C2=C(CN4C(=O)OC(C)(C)C)[C@H](C)C1COC", "note": "(some centres not stated)", "activity change, negative = inhibition": "inactive: 26.9%"}, {"compound": "CCn1c(NC(=O)c2ccc(COc3ccc(C)cc3[N+](=O)[O-])o2)nc2ccccc21", "Potency": "active: 2.24 µM"}, {"compound": "CC(=O)Nc1ccc(NC(=O)CS(=O)(=O)Cc2ccccc2)cc1", "Potency": "inconclusive: 15.8 µM [activator, single point]"}, {"compound": "C/C(=N\\Nc1cccc(C(=O)O)c1)c1ccc(Cl)s1", "Potency": "inconclusive: 15.8 µM [activator, partial curve]"}, {"compound": "NC(=O)c1nsc(C(=O)N(c2ccccc2)C(C(=O)NCc2ccc(F)cc2)c2ccco2)c1N", "note": "(configuration not stated)", "Potency": "inconclusive: 35.5 µM [activator, single point]"}, {"compound": "Cc1ccc2nc(-c3ccccc3)c(CN3CCSCC3)n2c1", "Potency": "active: 15.8 µM"}, {"compound": "Cc1oc(-c2cccc(Cl)c2)nc1CN(C)C1CCOC1", "note": "(configuration not stated)", "Potency": "inconclusive: 35.5 µM [activator, single point]"}, {"compound": "Cc1cc(N2CCCCC2)nc(SCC(=O)c2ccccc2)n1", "activity change, negative = inhibition": "inactive: -7.12%"}, {"compound": "CC(C)(C)NS(=O)(=O)c1ccc(NC(=O)C(Sc2ccccc2)c2ccccc2)cc1", "note": "(configuration not stated)", "Potency": "inconclusive: 35.5 µM [activator, single point]"}, {"compound": "COc1ccc(OC)c(NS(=O)(=O)c2ccc(NC(=O)C3COc4ccccc4O3)cc2)c1", "note": "(configuration not stated)", "Potency": "inconclusive: 14.1 µM [activator, single point]"}, {"compound": "O=C(N/N=C/c1c(O)n(Cc2ccccc2)c(=O)c2ccccc12)c1cccnc1", "Potency": "active: 11.2 µM"}, {"compound": "NC(N)=NC(=S)Nc1ccc(Cl)cc1", "Potency": "inconclusive: 8.91 µM [inhibitor, partial curve]"}, {"compound": "CCN(C(=O)CN1C(=S)NC(C)(C)CC1C)c1ccc(C)c(C)c1", "note": "(configuration not stated)", "Potency": "active: 7.08 µM"}, {"compound": "Cc1ccc(S(=O)(=O)/N=C(\\Sc2ccccc2)c2ccccc2)cc1", "activity change, negative = inhibition": "inactive: -8.26%"}, {"compound": "N#CCCN(C(=S)NC(=O)c1ccco1)c1ccccc1F", "activity change, negative = inhibition": "inactive: -26.1%"}, {"compound": "CCc1ccc(N(C(=O)c2csnn2)C(C(=O)NC(C)(C)C)c2ccncc2)cc1", "note": "(configuration not stated)", "activity change, negative = inhibition": "inactive: 19.1%"}, {"compound": "O=c1c2ccccc2nc2n1CCCS2", "activity change, negative = inhibition": "inactive: -20%"}, {"compound": "CCCCC(=O)Nc1nc2ccc(C(=O)OC)cc2s1", "Potency": "active: 8.91 µM"}, {"compound": "O=C(CN1CCN(c2ccccn2)CC1)Nc1ccc(F)cc1F", "activity change, negative = inhibition": "inactive: 22.8%"}, {"compound": "O=C(Cn1cc(C(=O)C2CC2)c2ccccc21)NCc1ccc2c(c1)OCO2", "Potency": "inconclusive: 11.2 µM [activator, partial curve]"}, {"compound": "CCc1ccc(C2=C/C(=C/c3cccnc3)C(=O)O2)cc1", "Potency": "inconclusive: 1.26 µM [activator, full curve, poor fit]"}, {"compound": "CC(C)(C)c1ccc(CNc2ccc([N+](=O)[O-])cn2)cc1", "Potency": "inconclusive: 11.2 µM [activator, partial curve]"}]}]}
